{"source": "paper PMC7470945", "about": "“DNA backbone interactions impact the sequence specificity of DNA sulfur-binding domains: revelations from structural analyses”", "key": {"[1]": {"molecular_target": "T1, SBDSpr (SBD of SprMcrA) (Streptomyces pristinaespiralis) (UniProt A0A0M4DML1)", "T1 sequence (looked up)": "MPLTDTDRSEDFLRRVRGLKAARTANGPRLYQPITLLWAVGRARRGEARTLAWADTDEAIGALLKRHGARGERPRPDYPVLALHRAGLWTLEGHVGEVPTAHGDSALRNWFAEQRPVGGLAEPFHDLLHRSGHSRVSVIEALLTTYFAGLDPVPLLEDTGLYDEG", "assay": "fluorescence polarization", "settings": "FP: 20 mM Tris-HCl pH 8.0, 50 mM NaCl, 5% glycerol, 1 mM DTT, 5 nM probe, room temperature, recombinant protein, residues 1-165, protein details: N-terminal 6xHis (pET28a); for binding result: label: 5'-FAM on one strand"}, "[2]": {"molecular_target": "T1, SBDSpr (SBD of SprMcrA) (Streptomyces pristinaespiralis)", "assay": "X-ray crystallography", "settings": "recombinant protein, residues 1-165, protein details: N-terminal 6xHis (pET28a)"}, "[3]": {"molecular_target": "T2, SBDSco E156K (Streptomyces coelicolor) (UniProt Q9L0M9)", "T2 sequence (looked up, limits assumed)": "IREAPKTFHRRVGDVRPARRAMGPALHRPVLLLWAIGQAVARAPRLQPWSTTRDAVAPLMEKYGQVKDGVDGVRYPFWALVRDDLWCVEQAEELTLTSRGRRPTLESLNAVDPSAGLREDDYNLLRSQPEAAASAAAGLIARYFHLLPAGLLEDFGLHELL", "assay": "fluorescence polarization", "settings": "RP phosphorothioate between G4 and G5 of strand 1; FP: 20 mM Tris-HCl pH 8.0, 50 mM NaCl, 5% glycerol, 1 mM DTT, 5 nM probe, room temperature; recombinant protein; protein details: 6xHis; label: 5'-FAM on one strand (FP)"}, "[4]": {"molecular_target": "T3, SBDSpr D104A (Streptomyces pristinaespiralis) (UniProt A0A0M4DML1)", "T3 sequence (looked up)": "T1 sequence (looked up) with D104A", "assay": "fluorescence polarization", "settings": "RP phosphorothioate between G4 and G5 of strand 1; FP: 20 mM Tris-HCl pH 8.0, 50 mM NaCl, 5% glycerol, 1 mM DTT, 5 nM probe, room temperature; recombinant protein; residues 1-165; protein details: 6xHis; label: 5'-FAM on one strand (FP)"}, "[5]": {"molecular_target": "T4, SBDSpr P79A (Streptomyces pristinaespiralis) (UniProt A0A0M4DML1)", "T4 sequence (looked up)": "T1 sequence (looked up) with P79A", "assay": "fluorescence polarization", "settings": "RP phosphorothioate between G4 and G5 of strand 1; FP: 20 mM Tris-HCl pH 8.0, 50 mM NaCl, 5% glycerol, 1 mM DTT, 5 nM probe, room temperature; recombinant protein; residues 1-165; protein details: 6xHis; label: 5'-FAM on one strand (FP)"}, "[6]": {"molecular_target": "T5, SBDSco E156Q (Streptomyces coelicolor) (UniProt Q9L0M9)", "T5 sequence (looked up, limits assumed)": "T2 sequence (looked up, limits assumed) with K67Q", "assay": "fluorescence polarization", "settings": "RP phosphorothioate between G4 and G5 of strand 1; FP: 20 mM Tris-HCl pH 8.0, 50 mM NaCl, 5% glycerol, 1 mM DTT, 5 nM probe, room temperature; recombinant protein; protein details: 6xHis; label: 5'-FAM on one strand (FP)"}, "[7]": {"molecular_target": "T6, SBDSco E156R (Streptomyces coelicolor) (UniProt Q9L0M9)", "T6 sequence (looked up, limits assumed)": "T2 sequence (looked up, limits assumed) with K67R", "assay": "fluorescence polarization", "settings": "RP phosphorothioate between G4 and G5 of strand 1; FP: 20 mM Tris-HCl pH 8.0, 50 mM NaCl, 5% glycerol, 1 mM DTT, 5 nM probe, room temperature; recombinant protein; protein details: 6xHis; label: 5'-FAM on one strand (FP)"}, "[8]": {"molecular_target": "T7, SBDSco (SBD of ScoMcrA) (Streptomyces coelicolor) (UniProt Q9L0M9)", "T7 sequence (looked up, limits assumed)": "T2 sequence (looked up, limits assumed) with K67E", "assay": "fluorescence polarization", "settings": "RP phosphorothioate between G4 and G5 of strand 1; FP: 20 mM Tris-HCl pH 8.0, 50 mM NaCl, 5% glycerol, 1 mM DTT, 5 nM probe, room temperature; recombinant protein; protein details: N-terminal 6xHis (pET28a); label: 5'-FAM on one strand (FP)"}, "[9]": {"molecular_target": "T8, SBDSpr Y31A (Streptomyces pristinaespiralis) (UniProt A0A0M4DML1)", "T8 sequence (looked up)": "T1 sequence (looked up) with Y31A", "assay": "fluorescence polarization", "settings": "RP phosphorothioate between G4 and G5 of strand 1; FP: 20 mM Tris-HCl pH 8.0, 50 mM NaCl, 5% glycerol, 1 mM DTT, 5 nM probe, room temperature; recombinant protein; residues 1-165; protein details: 6xHis; label: 5'-FAM on one strand (FP)"}, "[10]": {"molecular_target": "T9, SBDSco E156R/D157R (Streptomyces coelicolor) (UniProt Q9L0M9)", "T9 sequence (looked up, limits assumed)": "T2 sequence (looked up, limits assumed) with K67R, D68R", "assay": "fluorescence polarization", "settings": "RP phosphorothioate between G4 and G5 of strand 1; FP: 20 mM Tris-HCl pH 8.0, 50 mM NaCl, 5% glycerol, 1 mM DTT, 5 nM probe, room temperature; recombinant protein; protein details: 6xHis; label: 5'-FAM on one strand (FP)"}, "[11]": {"molecular_target": "T10, SBDSpr R85A (Streptomyces pristinaespiralis) (UniProt A0A0M4DML1)", "T10 sequence (looked up)": "T1 sequence (looked up) with R85A", "assay": "fluorescence polarization", "settings": "RP phosphorothioate between G4 and G5 of strand 1; FP: 20 mM Tris-HCl pH 8.0, 50 mM NaCl, 5% glycerol, 1 mM DTT, 5 nM probe, room temperature; recombinant protein; residues 1-165; protein details: 6xHis; label: 5'-FAM on one strand (FP)"}, "[12]": {"molecular_target": "T11, SBDSpr R73A (Streptomyces pristinaespiralis) (UniProt A0A0M4DML1)", "T11 sequence (looked up)": "T1 sequence (looked up) with R73A", "assay": "fluorescence polarization", "settings": "RP phosphorothioate between G4 and G5 of strand 1; FP: 20 mM Tris-HCl pH 8.0, 50 mM NaCl, 5% glycerol, 1 mM DTT, 5 nM probe, room temperature; recombinant protein; residues 1-165; protein details: 6xHis; label: 5'-FAM on one strand (FP)"}, "[13]": {"molecular_target": "T12, SBDSpr G103A (Streptomyces pristinaespiralis) (UniProt A0A0M4DML1)", "T12 sequence (looked up)": "T1 sequence (looked up) with G103A", "assay": "fluorescence polarization", "settings": "RP phosphorothioate between G4 and G5 of strand 1; FP: 20 mM Tris-HCl pH 8.0, 50 mM NaCl, 5% glycerol, 1 mM DTT, 5 nM probe, room temperature; recombinant protein; residues 1-165; protein details: 6xHis; label: 5'-FAM on one strand (FP)"}, "[14]": {"molecular_target": "T13, SBDSco E156L (Streptomyces coelicolor) (UniProt Q9L0M9)", "T13 sequence (looked up, limits assumed)": "T2 sequence (looked up, limits assumed) with K67L", "assay": "fluorescence polarization", "settings": "RP phosphorothioate between G4 and G5 of strand 1; FP: 20 mM Tris-HCl pH 8.0, 50 mM NaCl, 5% glycerol, 1 mM DTT, 5 nM probe, room temperature; recombinant protein; protein details: 6xHis; label: 5'-FAM on one strand (FP)"}, "[15]": {"molecular_target": "T14, SBDSpr Y78A (Streptomyces pristinaespiralis) (UniProt A0A0M4DML1)", "T14 sequence (looked up)": "T1 sequence (looked up) with Y78A", "assay": "fluorescence polarization", "settings": "RP phosphorothioate between G4 and G5 of strand 1; FP: 20 mM Tris-HCl pH 8.0, 50 mM NaCl, 5% glycerol, 1 mM DTT, 5 nM probe, room temperature; recombinant protein; residues 1-165; protein details: 6xHis; label: 5'-FAM on one strand (FP)"}, "[16]": {"molecular_target": "T15, SBDSco E156D (Streptomyces coelicolor) (UniProt Q9L0M9)", "T15 sequence (looked up, limits assumed)": "T2 sequence (looked up, limits assumed) with K67D", "assay": "fluorescence polarization", "settings": "RP phosphorothioate between G4 and G5 of strand 1; FP: 20 mM Tris-HCl pH 8.0, 50 mM NaCl, 5% glycerol, 1 mM DTT, 5 nM probe, room temperature; recombinant protein; protein details: 6xHis; label: 5'-FAM on one strand (FP)"}, "[17]": {"molecular_target": "T16, SBDSpr H102A (Streptomyces pristinaespiralis) (UniProt A0A0M4DML1)", "T16 sequence (looked up)": "T1 sequence (looked up) with H102A", "assay": "fluorescence polarization", "settings": "RP phosphorothioate between G4 and G5 of strand 1; FP: 20 mM Tris-HCl pH 8.0, 50 mM NaCl, 5% glycerol, 1 mM DTT, 5 nM probe, room temperature; recombinant protein; residues 1-165; protein details: 6xHis; label: 5'-FAM on one strand (FP)"}, "[18]": {"molecular_target": "T17, SBDSpr Q32A (Streptomyces pristinaespiralis) (UniProt A0A0M4DML1)", "T17 sequence (looked up)": "T1 sequence (looked up) with Q32A", "assay": "fluorescence polarization", "settings": "RP phosphorothioate between G4 and G5 of strand 1; FP: 20 mM Tris-HCl pH 8.0, 50 mM NaCl, 5% glycerol, 1 mM DTT, 5 nM probe, room temperature; recombinant protein; residues 1-165; protein details: 6xHis; label: 5'-FAM on one strand (FP)"}, "[19]": {"settings": "RP phosphorothioate between G4 and G5 of strand 1, label: 5'-FAM on one strand (FP)"}}, "note": "Residue numbers refer to the chain shown, from its start. For some assays here: Negatives hold for the conditions tested. Where a protein sequence is shown, tags need not be part of it. The exact form of at least one protein or probe is not confirmed."}
{"sequence": "CACGTTCGCC (double strand) [PT-GTTC-10 RP (hemi-PT)]", "values": [{"measurement": "binding result", "setting": "[1]; RP phosphorothioate between G4 and T5 of strand 1", "value": "no binding"}]}
{"sequence": "CACGTTCGCC (double strand) [PT-GTTC-10 SP (hemi-PT)]", "values": [{"measurement": "binding result", "setting": "[1]; SP phosphorothioate between G4 and T5 of strand 1", "value": "no binding"}]}
{"sequence": "GATGATCC (double strand) [PT-GATC-8 RP (hemi-PT)]", "values": [{"measurement": "binding result", "setting": "[2]; RP phosphorothioate between G4 and A5 of strand 1", "value": "binds"}]}
{"sequence": "GGCGAACGTG (double strand) [PT-GAAC-10 SP (hemi-PT)]", "values": [{"measurement": "binding result", "setting": "[1]; SP phosphorothioate between G4 and A5 of strand 1", "value": "no binding"}]}
{"sequence": "GGCGGCCC (double strand) [PT-GGCC SP (hemi-PT)]", "values": [{"measurement": "binding result", "setting": "[1]; SP phosphorothioate between G4 and G5 of strand 1", "value": "no binding"}]}
{"sequence": "GGCGGCCC (double strand) [PT-GGCC-8 RP (hemi-PT)]", "values": [{"measurement": "Kd", "setting": "[3]", "value": 130, "unit": "nM"}, {"measurement": "Kd", "setting": "[4]", "value": 144, "unit": "nM"}, {"measurement": "Kd", "setting": "[5]", "value": 67, "unit": "nM"}, {"measurement": "Kd", "setting": "[6]", "value": 137, "unit": "nM"}, {"measurement": "Kd", "setting": "[7]", "value": 133, "unit": "nM"}, {"measurement": "Kd", "setting": "[8]", "value": 102, "unit": "nM"}, {"measurement": "Kd", "setting": "[9]", "value": "> 3160", "unit": "nM"}, {"measurement": "Kd", "setting": "[10]", "value": 123, "unit": "nM"}, {"measurement": "Kd", "setting": "[11]", "value": 31, "unit": "nM"}, {"measurement": "Kd", "setting": "[12]", "value": "> 1250", "unit": "nM"}, {"measurement": "Kd", "setting": "[13]", "value": "> 9000", "unit": "nM"}, {"measurement": "Kd", "setting": "[14]", "value": 110, "unit": "nM"}, {"measurement": "Kd", "setting": "[15]", "value": "> 4480", "unit": "nM"}, {"measurement": "Kd", "setting": "[1]; [19]", "value": 5.6, "unit": "nM"}, {"measurement": "Kd", "setting": "[16]", "value": 112, "unit": "nM"}, {"measurement": "Kd", "setting": "[17]", "value": "> 1860", "unit": "nM"}, {"measurement": "Kd", "setting": "[18]", "value": 279, "unit": "nM"}, {"measurement": "binding result", "setting": "[2]; [19]", "value": "binds"}]}
